Source: the supplement of paper PMC12823440, “Inhibitors supercharge kinase turnover through native proteolytic circuits” (Nature, 2025)
Where a name gives a salt, the structure may show the parent alone. Some of the results follow. Hit calls seldom repeat between salt and free forms of one compound.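 In K562 cells expressing nanoluciferase-fused kinases, luminescence was recorded at 4 h intervals between 2 and 18 h, normalized as percent of control with DMSO at 100% and a positive control at 0%. A significant (2 sigma) signal drop marks a time point as decreased. The authors' rule for a hit is not shown and takes in more than the number of time points.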

Amino acid sequences for entries named in this document (tags omitted). A change or cut given only in a name is not applied to a line headed by its entry.
UniProt O96013: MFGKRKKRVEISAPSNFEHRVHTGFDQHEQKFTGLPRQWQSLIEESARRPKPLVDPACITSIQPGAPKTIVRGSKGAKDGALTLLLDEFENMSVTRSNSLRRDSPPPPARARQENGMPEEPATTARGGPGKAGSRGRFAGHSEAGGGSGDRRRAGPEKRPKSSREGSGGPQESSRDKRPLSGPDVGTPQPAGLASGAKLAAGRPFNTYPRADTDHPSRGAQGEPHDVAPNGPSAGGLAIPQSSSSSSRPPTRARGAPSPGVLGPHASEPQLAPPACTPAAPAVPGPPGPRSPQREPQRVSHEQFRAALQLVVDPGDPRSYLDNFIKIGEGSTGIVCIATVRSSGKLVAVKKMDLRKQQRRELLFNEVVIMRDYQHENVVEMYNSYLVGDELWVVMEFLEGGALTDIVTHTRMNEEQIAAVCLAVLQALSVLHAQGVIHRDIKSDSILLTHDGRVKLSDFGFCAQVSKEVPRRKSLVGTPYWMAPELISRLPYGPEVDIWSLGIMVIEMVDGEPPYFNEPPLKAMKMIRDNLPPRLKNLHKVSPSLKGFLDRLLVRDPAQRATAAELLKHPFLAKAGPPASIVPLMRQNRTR

Each compound was assayed against PAK4 (UniProt O96013) (assay: number of time points (of 5) at which kinase-Nluc abundance scored as decreased, DMSO-normalised (count); higher = more persistent destabilization). Conditions: K562; 2-18 h.
With `C[C@H]1CC[C@]2(NC1)O[C@H]1C[C@H]3[C@@H]4CC[C@H]5C[C@@H](O[C@@H]6O[C@H](CO)[C@H](O[C@@H]7O[C@H](CO)[C@@H](O)[C@H](O[C@@H]8OC[C@@H](O)[C@H](O)[C@H]8O)[C@H]7O[C@@H]7O[C@H](CO)[C@@H](O)[C@H](O)[C@H]7O)[C@H](O)[C@H]6O)CC[C@]5(C)[C@H]4CC[C@]3(C)[C@H]1[C@@H]2C` [Tomatine] (2.5 µM) the “number of time points” value was 0.
In the case of `CCCCNc1nc(N)c2[nH]c(=O)n(Cc3ccc(C)nc3)c2n1` (10 µM), the “number of time points” value was 0.
With `C[C@H](CCC(=O)O)C[C@H](C)C[C@H](C)C(=O)/C=C(\O)[C@H](C)C[C@H](C)C/C=C/[C@@H](C)[C@@H](O)[C@@H](C)[C@@H](O)C[C@@H]1CC[C@@](C)([C@H]2CC[C@@](C)([C@@H](C)O)O2)O1` [Ionomycin (calcium)] (2.5 µM) the “number of time points” value was 0.
With `CCOC(=O)c1c(/C(C#N)=C\N)c2ccc(Cl)c(Cl)c2n1C` (10 µM) the “number of time points” value was 0.
With `CC(=O)OC(C)(C)/C=C/C(=O)[C@](C)(O)[C@H]1[C@H](O)C[C@@]2(C)[C@@H]3CC=C4[C@@H](C=C(O)C(=O)C4(C)C)[C@]3(C)C(=O)C[C@]12C` [Cucurbitacin E] (2.5 µM) the “number of time points” value was 0.
With `O=C1C=CC[C@@H]2[C@H]3CCCN4CCC[C@@H](CN12)[C@@H]34` [Sophocarpine (monohydrate)] (2.5 µM) the “number of time points” value was 0.
For `C=CC(=O)Nc1ccc2[nH]c(=O)n(C3CCN(Cc4ccc(-c5nc6cc[nH]c(=O)c6cc5-c5ccccc5)cc4)CC3)c2c1` [Borussertib] (10 µM), the “number of time points” value was 0.
In the case of `O=C1C=CC[C@@H]2[C@H]3CCCN4CCC[C@@H](CN12)[C@@H]34` [Sophocarpine] (10 µM), the “number of time points” value was 0.
For `C=CC(=O)N[C@H]1C=C(C)c2c(-c3cnc4ccccc4c3)c3c(N)ncnc3n2C1` (10 µM), the “number of time points” value was 0.
With `Cn1cc(C2=C(c3cn(C4CCN(Cc5ccccn5)CC4)c4ccccc34)C(=O)NC2=O)c2ccccc21` [Enzastaurin] (10 µM) the “number of time points” value was 0.
For `CCN1CCN(C(=O)Cc2ccc(Nc3ncc(F)c(Nc4ccc(C(=O)Nc5ccccc5Cl)cc4)n3)cc2)CC1` (2.5 µM), the “number of time points” value was 0.
For `C[C@H]1CC[C@]2(NC1)O[C@H]1C[C@H]3[C@@H]4CC[C@H]5C[C@@H](O)CC[C@]5(C)[C@H]4CC[C@]3(C)[C@H]1[C@@H]2C` [Tomatidine (hydrochloride)] (10 µM), the “number of time points” value was 0.
In the case of `O=[N+]([O-])/C=C/c1ccc2c(c1)OCO2` (2.5 µM), the “number of time points” value was 0.
In the case of `NCCc1cn(S(=O)(=O)c2c(Cl)nc3sccn23)c2ccccc12` (10 µM), the “number of time points” value was 0.
With `COc1ccc(N(C(=O)Oc2c(C)cccc2C)c2ccnc(Nc3ccc(N4CCN(C)CC4)cc3)n2)c(OC)c1` (2.5 µM) the “number of time points” value was 0.
With `Cc1ccccc1-n1c(Cn2cnc3c(N)ncnc32)nc2cccc(C)c2c1=O` (10 µM) the “number of time points” value was 0.
In the case of `Cc1[nH]ncc1-c1cc2nc([C@H]3CC4CCN3CC4)[nH]c(=O)c2s1` [(R)-Simurosertib] (10 µM), the “number of time points” value was 0.
With `CC1C(=O)OC2C(O)C34C5OC(=O)C3(OC3OC(=O)C(O)C34C(C(C)(C)C)C5O)C12O` (stereo not drawn) [Ginkgolide C] (10 µM) the “number of time points” value was 0.
In the case of `O=C(/C=C/c1ccccc1)OC[C@H]1O[C@@H](O[C@@H]2OC=C[C@H]3[C@H](O)[C@@H]4O[C@]4(CO)[C@@H]23)[C@H](O)[C@@H](O)[C@@H]1O` [Picroside I] (10 µM), the “number of time points” value was 0.
In the case of `CC1=C[C@]23C(=O)[C@@H](C=C(CO)[C@@H](O)[C@]2(O)[C@H]1O)[C@H]1[C@@H](C[C@H]3C)C1(C)C` [Ingenol] (10 µM), the “number of time points” value was 0.
With `O=Cc1cn(Cc2ccc(Cl)cc2)c2ccccc12` [Oncrasin-1] (10 µM) the “number of time points” value was 0.
In the case of `C[C@@H]1CC[C@H]2[C@@H](C)C(=O)O[C@@H]3O[C@@]4(C)CC[C@@H]1[C@]32OO4` [Artemisinin] (10 µM), the “number of time points” value was 0.
In the case of `C[C@H](Nc1ncnc2[nH]cnc12)c1nc2ccc(F)cc2c(=O)n1-c1ccccc1` [Acalisib] (10 µM), the “number of time points” value was 0.
In the case of `O=C1c2ccccc2C(=O)c2c1cccc2-c1cnn(C2CCNCC2)c1` [PDK4-IN-1 (hydrochloride)] (10 µM), the “number of time points” value was 0.
In the case of `Cc1ccccc1-n1c(Cn2ncc3c(N)ncnc32)nc2cccc(C)c2c1=O` (10 µM), the “number of time points” value was 0.
In the case of `Nc1ncnc2c1ncn2[C@@H]1O[C@@H]2COP(O)(=S)O[C@H]2[C@H]1O` (stereo partly drawn) [Sp-cAMPS (sodium salt)] (10 µM), the “number of time points” value was 0.
With `CN(C)C(=O)c1ccc(Cn2c(C(=O)O)cc3c(Br)cc(Sc4ccc(Cl)c(Cl)c4)cc32)cc1` [Rheb inhibitor NR1] (10 µM) the “number of time points” value was 0.
In the case of `C/C=C(/C)C(=O)O[C@H]1[C@@H]2[C@H](C)C(=O)O[C@@H]2C[C@@H](C)[C@@H]2C=CC(=O)[C@]21C` [Brevilin A] (2.5 µM), the “number of time points” value was 0.
